Data reported in paper PMC9319549, “Synthesis and Biological Evaluation of Imadazo[1,2-a]pyrazines as Anticancer and Antiviral Agents through Inhibition of CDK9 and Human Coronavirus” (Pharmaceuticals, 2022).

How the values were obtained:
Assay in all cases: cells
[1] = test system: colorectal cancer (HCT116); details: Homo sapiens, HCT-116, 48 h, read-out: IC50 HCT116
[2] = test system: chronic myelogenous leukaemia; details: K652, 48 h, read-out: IC50 K652
normal cells FHC = details: read-out: FHC IC50

In the case of `CN[C@@H]1C[C@H]2O[C@@](C)([C@@H]1OC)n1c3ccccc3c3c4c(c5c6ccccc6n2c5c31)C(=O)NC4` [Staurosporine, reference compound], the IC50 [1] is reported as 10.9 ± 0.26 µM, the IC50 [2] is reported as 22.1 ± 0.56 µM and the IC50 (normal cells FHC) is reported as 38.2 ± 0.97 µM.
